Experimental data from PubChem BioAssay AID1347131 (National Center for Advancing Translational Sciences (NCATS), 2019).
Out of some 410,000 compounds screened, about 2,000 (0.49%) were called active. Inconclusive means that the source gave no clear call. Such entries were picked first, then a sample of the others. The call rests on the fitted dose curve; tested in HEK293 reporter line. Potencies of inconclusive entries are doubtful fits and often do not repeat.

Assay: qHTS Assay for Foot and Mouth Disease Virus Antivirals: Primary Screen against the MLPCN compound library; further: nearly all actives have a fitted effect of over 55% in size
Conditions: FMDV antiviral cell-based qHTS; series mostly up to 57.9 µM
Potency means the concentration at half of the fitted maximal effect.

Row | SMILES | Potency
1 | O=C(CCl)N1c2ccccc2Oc2ccc3ccccc3c21 | inconclusive: 25.1 µM [inhibitor, single point]
2 | COc1ccc(C)cc1N(C)C(=O)c1sc2nc3n(c(=O)c2c1C)CCCCC3 | inconclusive: 10 µM [inhibitor, partial curve]
3 | COc1ccc2c(c1OC)C(=O)OC2Nc1nc(-c2cc3ccccc3oc2=O)cs1 (stereo not drawn) | inconclusive: 22.4 µM [inhibitor, partial curve]
4 | CCc1c(C2(O)CCCCC2)[nH]c2ncccc12 | inconclusive: 11.2 µM [inhibitor, partial curve]
5 | N#CC(C#N)=c1ccc2c(c1)NC1(CCCCC1)N=2 | inconclusive: 25.1 µM [inhibitor, single point]
6 | CCN(CCO)c1ccc(N=Nc2cc(C)[nH]n2)cc1 | inconclusive: 12.6 µM [inhibitor, partial curve, poor fit]
7 | Cn1cnc([N+](=O)[O-])c1S(=O)(=O)c1cccc(Cl)c1 | inconclusive: 25.1 µM [inhibitor, partial curve, poor fit]
8 | COC(=O)c1ccc(NC(=O)c2nc(S(=O)(=O)Cc3cccc(C)c3)ncc2Cl)cc1 | inconclusive: 28.2 µM [inhibitor, partial curve, poor fit]
9 | Cn1nnnc1Sc1ncnc2scc(-c3ccc(C#N)cc3)c12 | inconclusive: 28.2 µM [inhibitor, partial curve, poor fit]
10 | Cc1ccc(SCC(=O)NNC(=O)c2ccccc2)c(C)c1 | inconclusive: 3.55 µM [inhibitor, full curve]
11 | COC(=O)/C=C1/SC(=NC(=O)c2ccc(F)cc2)NC1=O | inconclusive: 39.8 µM [inhibitor, partial curve, poor fit]
12 | CCCOC(=O)c1ccc(-n2nnnc2SCC(=O)N2CCCCC2)cc1 | inconclusive: 31.6 µM [inhibitor, partial curve, poor fit]
13 | CCC(C)c1ccccc1N1CC(C(=O)N2CCN(S(=O)(=O)c3ccccc3Br)CC2)CC1=O (stereo not drawn) | inconclusive: 35.5 µM [inhibitor, partial curve, poor fit]
14 | CN(Cc1cccc([N+](=O)[O-])c1)Cc1cccc2ccccc12 | inconclusive: 10 µM [inhibitor, partial curve]
15 | CSc1ccc(CN(C)C(=O)c2cc(=O)[nH]c3ccccc23)cc1 | inconclusive: 2.82 µM [inhibitor, full curve, poor fit]
16 | c1ccc(-c2csc(NC3=NCCCCC3)n2)cc1 | inconclusive: 12.6 µM [inhibitor, partial curve]
17 | N#C/C(=C(/O)CCl)c1nc2c(s1)CCc1ccccc1-2 | inconclusive: 25.1 µM [inhibitor, partial curve, poor fit]
18 | COc1cc(/C=C/[N+](=O)[O-])ccc1OCc1cccc(C(=O)O)c1 | inconclusive: 10 µM [inhibitor, partial curve, poor fit]
19 | CCCCCc1nn2cc(-c3ccccc3)nc2s1 | active: 12.6 µM

Some values from the entries so far:
COC(=O)c1ccc(NC(=O)c2nc(S(=O)(=O)Cc3cccc(C)c3)ncc2Cl)cc1 – Potency: inconclusive: 28.2 µM [inhibitor, partial curve, poor fit]
COC(=O)/C=C1/SC(=NC(=O)c2ccc(F)cc2)NC1=O – Potency: inconclusive: 39.8 µM [inhibitor, partial curve, poor fit]
COc1cc(/C=C/[N+](=O)[O-])ccc1OCc1cccc(C(=O)O)c1 – Potency: inconclusive: 10 µM [inhibitor, partial curve, poor fit]

(listing goes on)

Row | SMILES | Potency
20 | COc1ccccc1NC(=O)c1ccc(NC(=O)COC(=O)C2(C)CC2(Cl)Cl)cc1 (stereo not drawn) | inconclusive: 35.5 µM [inhibitor, partial curve, poor fit]
21 | CCc1ccc2oc(C(=O)Nc3nonc3C)c(C)c2c1 | inconclusive: 28.2 µM [inhibitor, single point]
22 | CC(C)(C)S(=O)N1Cc2ccc(CO)cc2[C@@H]1CCO (stereo partly drawn) | inconclusive: 39.8 µM [inhibitor, partial curve, poor fit]
23 | CCOc1ccc(CCNC(=O)c2ccc3c(c2)sc2nc(-c4ccc(F)cc4)cn23)cc1OCC | inactive
24 | O=C(CCNC(=O)c1ccc([N+](=O)[O-])cc1)Nc1ccccc1N1CCCCC1 | inconclusive: 35.5 µM [inhibitor, single point]
25 | COc1ccc([N+](=O)[O-])c(S(=O)(=O)c2ccccc2)n1 | inconclusive: 31.6 µM [inhibitor, partial curve, poor fit]
26 | Cc1ccc([N+](=O)[O-])c(OCCn2cnc3ccccc32)c1 | inconclusive: 5.01 µM [inhibitor, partial curve, poor fit]
27 | O=C(/C=C\Nc1ccccn1)c1ccccc1 | active: 10 µM
28 | CCCCNc1c(-c2ccc(OC)c(Sc3ccc(OC)cc3)c2)nc2ccc(Cl)cn12 | inconclusive: 8.91 µM [inhibitor, partial curve]
29 | C=CCn1c(SCc2nc3scc(-c4ccccc4)c3c(=O)[nH]2)nnc1-c1ccccc1F | inconclusive: 28.2 µM [inhibitor, single point]
30 | Cc1ccccc1C(=O)N1CCN(c2ccc(NC(=S)NC(=O)c3ccco3)cc2)CC1 | inconclusive: 25.1 µM [inhibitor, partial curve, poor fit]
31 | C[C@H](NC(=O)c1nc[nH]c1C(=O)NCCCCCNC(=O)OC(C)(C)C)c1ccccc1 | inconclusive: 39.8 µM [inhibitor, single point]
32 | CCSc1nnc(NC(=O)c2cc(C)oc2C)s1 | inconclusive: 11.2 µM [inhibitor, partial curve]
33 | Cc1ccc(NC(=O)C2(S(=O)(=O)c3ccc(C)cc3)CC2)cc1 | inconclusive: 8.91 µM [inhibitor, partial curve]
34 | COC(=O)C(NNc1ccccc1C)(NC(=O)c1ccc(F)cc1)C(F)(F)F (stereo not drawn) | inconclusive: 20 µM [inhibitor, single point]
35 | COc1cccc(-c2nn3c(=O)cc(CN4CCN(C(=O)COc5ccccc5C)CC4)nc3s2)c1 | inconclusive: 3.55 µM [inhibitor, partial curve, poor fit]
36 | Cc1cc(Oc2ccc(-c3ccccc3)cc2)n2ncnc2n1 | inconclusive: 39.8 µM [inhibitor, partial curve, poor fit]
37 | COc1cccc(NC(=O)c2ccc3c(c2)OCCO3)c1 | inconclusive: 15.8 µM [inhibitor, single point]
38 | CCCCCOc1ccc(Br)cc1CSC(=N)N | inconclusive: 15.8 µM [inhibitor, partial curve, poor fit]
